# From PMC4465127
# Experiments:
# [1] = molecular target: T1, sLET-23ΔV (LET-23 extracellular region with domain V deleted) (C. elegans) (UniProt P24348); experiment: SAXS; synchrotron (CHESS F1), 42 μM sLET-23ΔV with 100 μM LIN-3^EGF, pH 8.0, 5% glycerol; both purified
# T1 sequence: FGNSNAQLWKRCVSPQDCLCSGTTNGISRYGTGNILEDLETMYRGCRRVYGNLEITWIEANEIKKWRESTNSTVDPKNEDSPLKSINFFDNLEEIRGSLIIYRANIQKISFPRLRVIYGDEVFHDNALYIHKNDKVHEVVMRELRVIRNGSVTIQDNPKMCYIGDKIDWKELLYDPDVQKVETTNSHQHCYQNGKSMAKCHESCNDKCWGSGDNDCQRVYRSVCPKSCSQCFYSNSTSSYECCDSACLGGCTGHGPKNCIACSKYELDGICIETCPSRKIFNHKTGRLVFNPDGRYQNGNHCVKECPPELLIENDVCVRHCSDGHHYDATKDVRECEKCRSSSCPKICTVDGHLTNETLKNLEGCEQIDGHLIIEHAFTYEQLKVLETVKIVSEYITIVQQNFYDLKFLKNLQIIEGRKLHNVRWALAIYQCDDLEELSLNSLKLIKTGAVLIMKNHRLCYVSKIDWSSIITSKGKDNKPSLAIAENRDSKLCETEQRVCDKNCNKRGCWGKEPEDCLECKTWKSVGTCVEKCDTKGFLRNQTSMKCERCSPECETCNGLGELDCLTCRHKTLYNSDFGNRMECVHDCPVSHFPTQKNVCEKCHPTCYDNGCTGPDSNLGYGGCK
# [2] = molecular target: T2, sLET-23ΔIV/V (LET-23 extracellular region with domains IV and V deleted) (C. elegans) (UniProt P24348); experiment: AUC; sedimentation equilibrium with 50-70 μM LIN-3^EGF added; 1 to 8 μM receptor, 10 mM Hepes pH 8.0, 150 mM NaCl, 20 °C, three speeds; dimer to monomers; both purified
# T2 sequence: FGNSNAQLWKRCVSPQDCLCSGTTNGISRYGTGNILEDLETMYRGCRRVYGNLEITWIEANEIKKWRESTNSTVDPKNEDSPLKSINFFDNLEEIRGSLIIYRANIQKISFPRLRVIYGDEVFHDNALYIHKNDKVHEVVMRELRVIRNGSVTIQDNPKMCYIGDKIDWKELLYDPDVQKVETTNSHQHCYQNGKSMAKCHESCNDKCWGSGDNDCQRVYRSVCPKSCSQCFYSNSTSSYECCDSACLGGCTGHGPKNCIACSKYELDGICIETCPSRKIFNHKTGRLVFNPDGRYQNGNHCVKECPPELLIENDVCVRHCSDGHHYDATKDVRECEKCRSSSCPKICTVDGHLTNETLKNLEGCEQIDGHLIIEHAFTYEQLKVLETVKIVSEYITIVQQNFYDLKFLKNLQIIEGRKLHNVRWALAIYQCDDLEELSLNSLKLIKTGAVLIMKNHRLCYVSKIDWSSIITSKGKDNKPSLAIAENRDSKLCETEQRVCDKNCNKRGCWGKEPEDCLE
substance,measurement,setting,value
LIN-3^EGF (the purified EGF domain from LIN-3) (C. elegans) (ligand),binding,[1],binds
same,binding,[2],binds

# Results are given in words; binding and its absence hold for the method and conditions named. Binding can be weak; no strength is given.
